The values that follow are results of earlier work, collected in US20070292384A1, “Water soluble micelle-forming and biodegradable cyclotriphosphazene-taxol conjugate anticancer agent and preparation method thereof” (priority 2006, published 2007).

For the series the following is noted: cited from earlier work.

As to `CC(=O)O[C@H]1C(=O)[C@@]2(C)[C@H]([C@H](OC(=O)c3ccccc3)[C@]3(O)C[C@H](OC(=O)[C@H](O)[C@@H](NC(=O)c4ccccc4)c4ccccc4)C(C)=C1C3(C)C)[C@]1(OC(C)=O)CO[C@@H]1C[C@@H]2O` [Taxol (free), Taxol], the solubility in water is under 1 µg/mL.
